From the supplement of paper PMC7661543
Differences between knockout arms are mostly noise.

System: SKBR3
Assay: relative cell number vs DMSO control (72 h) (% of DMSO); higher = less growth inhibition (more cells)
Procedure: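 QMAP-Seq: a pool of 5 breast cancer cell lines (ZR-75-1, SKBR3, HCC-38, MDA-MB-231, BT-20), each carrying 12 doxycycline-inducible Cas9 sgRNA perturbations (11 knockouts plus non-targeting sgNT), was treated with compounds for 72 h at four 10-fold doses (10 nM-10 uM or 1 nM-1 uM range). Barcodes were amplified and sequenced, and cell number was interpolated from 293T spike-in standard curves. The result is expressed as % of the median of DMSO wells. Two biological replicates.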

CC/C(=C(\c1ccc(O)cc1)c1ccc(OCCN(C)C)cc1)c1ccccc1 [4-Hydroxytamoxifen]
Settings | relative cell number
sgRNA knockout: sgATF3, 10 nM | 95.93
sgRNA knockout: sgATF3, 100 nM | 99.4
sgRNA knockout: sgATF3, 1000 nM | 104
sgRNA knockout: sgATF3, 10000 nM | 45.3
sgRNA knockout: sgATF4, 10 nM | 97
sgRNA knockout: sgATF4, 100 nM | 102
sgRNA knockout: sgATF4, 1000 nM | 89.7
sgRNA knockout: sgATF4, 10000 nM | 33.9
sgRNA knockout: sgATF6, 10 nM | 119
sgRNA knockout: sgATF6, 100 nM | 103
sgRNA knockout: sgATF6, 1000 nM | 90
sgRNA knockout: sgATF6, 10000 nM | 49.5
sgRNA knockout: sgATG7, 10 nM | 121
sgRNA knockout: sgATG7, 100 nM | 85.9
sgRNA knockout: sgATG7, 1000 nM | 88.1
sgRNA knockout: sgATG7, 10000 nM | 40.7
sgRNA knockout: sgERN1, 10 nM | 126
sgRNA knockout: sgERN1, 100 nM | 93.1
sgRNA knockout: sgERN1, 1000 nM | 104
sgRNA knockout: sgERN1, 10000 nM | 44.9
sgRNA knockout: sgHSF1, 10 nM | 69.9
sgRNA knockout: sgHSF1, 100 nM | 85.4
sgRNA knockout: sgHSF1, 1000 nM | 90.8
sgRNA knockout: sgHSF1, 10000 nM | 36.8
sgRNA knockout: sgHSF2, 10 nM | 98.3
sgRNA knockout: sgHSF2, 100 nM | 90.66
sgRNA knockout: sgHSF2, 1000 nM | 86.7
sgRNA knockout: sgHSF2, 10000 nM | 47.1
sgRNA knockout: sgKEAP1, 10 nM | 98.1
sgRNA knockout: sgKEAP1, 100 nM | 97.8
sgRNA knockout: sgKEAP1, 1000 nM | 78.3
sgRNA knockout: sgKEAP1, 10000 nM | 32.55
sgRNA knockout: sgNFE2L2, 10 nM | 97.5
sgRNA knockout: sgNFE2L2, 100 nM | 79.9
sgRNA knockout: sgNFE2L2, 1000 nM | 96.8
sgRNA knockout: sgNFE2L2, 10000 nM | 38.4
sgRNA knockout: sgSLC35F2, 10 nM | 94.3
sgRNA knockout: sgSLC35F2, 100 nM | 99.8
sgRNA knockout: sgSLC35F2, 1000 nM | 95.6
sgRNA knockout: sgSLC35F2, 10000 nM | 34.4
sgRNA knockout: sgXBP1, 10 nM | 110
sgRNA knockout: sgXBP1, 100 nM | 91.3
sgRNA knockout: sgXBP1, 1000 nM | 104
sgRNA knockout: sgXBP1, 10000 nM | 36.6

CN1CCN(c2ccc(C(=O)Nc3n[nH]c4ccc(Cc5cc(F)cc(F)c5)cc34)c(NC3CCOCC3)c2)CC1 [Entrectinib]
Settings | relative cell number
sgRNA knockout: sgATF3, 1 nM | 105
sgRNA knockout: sgATF3, 10 nM | 96.8
sgRNA knockout: sgATF3, 100 nM | 89.6
sgRNA knockout: sgATF3, 1000 nM | 104
sgRNA knockout: sgATF4, 1 nM | 77.5
sgRNA knockout: sgATF4, 10 nM | 82.6
sgRNA knockout: sgATF4, 100 nM | 71
sgRNA knockout: sgATF4, 1000 nM | 88.1
sgRNA knockout: sgATF6, 1 nM | 85.9
sgRNA knockout: sgATF6, 10 nM | 92.7
sgRNA knockout: sgATF6, 100 nM | 74
sgRNA knockout: sgATF6, 1000 nM | 91.2
sgRNA knockout: sgATG7, 1 nM | 96.9
sgRNA knockout: sgATG7, 10 nM | 83.7
sgRNA knockout: sgATG7, 100 nM | 79.2
sgRNA knockout: sgATG7, 1000 nM | 98.6
sgRNA knockout: sgERN1, 1 nM | 102
sgRNA knockout: sgERN1, 10 nM | 93.2
sgRNA knockout: sgERN1, 100 nM | 94.49
sgRNA knockout: sgERN1, 1000 nM | 106
sgRNA knockout: sgHSF1, 1 nM | 89
sgRNA knockout: sgHSF1, 10 nM | 67.1
sgRNA knockout: sgHSF1, 100 nM | 91.7
sgRNA knockout: sgHSF1, 1000 nM | 107
sgRNA knockout: sgHSF2, 1 nM | 90.5
sgRNA knockout: sgHSF2, 10 nM | 94.8
sgRNA knockout: sgHSF2, 100 nM | 78.5
sgRNA knockout: sgHSF2, 1000 nM | 91.47
sgRNA knockout: sgKEAP1, 1 nM | 93.7
sgRNA knockout: sgKEAP1, 10 nM | 87.6
sgRNA knockout: sgKEAP1, 100 nM | 86.7
sgRNA knockout: sgKEAP1, 1000 nM | 85.2
sgRNA knockout: sgNFE2L2, 1 nM | 77
sgRNA knockout: sgNFE2L2, 10 nM | 100
sgRNA knockout: sgNFE2L2, 100 nM | 94.2
sgRNA knockout: sgNFE2L2, 1000 nM | 79
sgRNA knockout: sgSLC35F2, 1 nM | 102
sgRNA knockout: sgSLC35F2, 10 nM | 80.3
sgRNA knockout: sgSLC35F2, 100 nM | 94.5
sgRNA knockout: sgSLC35F2, 1000 nM | 104
sgRNA knockout: sgXBP1, 1 nM | 105
sgRNA knockout: sgXBP1, 10 nM | 121
sgRNA knockout: sgXBP1, 100 nM | 78
sgRNA knockout: sgXBP1, 1000 nM | 97.1

CC(C)(C#N)c1ccc(N2C(=O)OCc3cnc4ccc(-c5cnc6ccccc6c5)cc4c32)cc1
Settings | relative cell number
sgRNA knockout: sgATF3, 10 nM | 89
sgRNA knockout: sgATF3, 100 nM | 90.5
sgRNA knockout: sgATF3, 1000 nM | 69.4
sgRNA knockout: sgATF3, 10000 nM | 43
sgRNA knockout: sgATF4, 10 nM | 89.8
sgRNA knockout: sgATF4, 100 nM | 102
sgRNA knockout: sgATF4, 1000 nM | 79.6
sgRNA knockout: sgATF4, 10000 nM | 42.8
sgRNA knockout: sgATF6, 10 nM | 77.3
sgRNA knockout: sgATF6, 100 nM | 120
sgRNA knockout: sgATF6, 1000 nM | 76.6
sgRNA knockout: sgATF6, 10000 nM | 44.9
sgRNA knockout: sgATG7, 10 nM | 103
sgRNA knockout: sgATG7, 100 nM | 83.9
sgRNA knockout: sgATG7, 1000 nM | 66.5
sgRNA knockout: sgATG7, 10000 nM | 49
sgRNA knockout: sgERN1, 10 nM | 88.5
sgRNA knockout: sgERN1, 100 nM | 98.1
sgRNA knockout: sgERN1, 1000 nM | 78.7
sgRNA knockout: sgERN1, 10000 nM | 37.4
sgRNA knockout: sgHSF1, 10 nM | 90.2
sgRNA knockout: sgHSF1, 100 nM | 104
sgRNA knockout: sgHSF1, 1000 nM | 86.2
sgRNA knockout: sgHSF1, 10000 nM | 35.2
sgRNA knockout: sgHSF2, 10 nM | 96.8
sgRNA knockout: sgHSF2, 100 nM | 97
sgRNA knockout: sgHSF2, 1000 nM | 87.4
sgRNA knockout: sgHSF2, 10000 nM | 42
sgRNA knockout: sgKEAP1, 10 nM | 88.7
sgRNA knockout: sgKEAP1, 100 nM | 82.1
sgRNA knockout: sgKEAP1, 1000 nM | 70.3
sgRNA knockout: sgKEAP1, 10000 nM | 41
sgRNA knockout: sgNFE2L2, 10 nM | 128
sgRNA knockout: sgNFE2L2, 100 nM | 90.7
sgRNA knockout: sgNFE2L2, 1000 nM | 67.3
sgRNA knockout: sgNFE2L2, 10000 nM | 30.2
sgRNA knockout: sgSLC35F2, 10 nM | 95
sgRNA knockout: sgSLC35F2, 100 nM | 97.2
sgRNA knockout: sgSLC35F2, 1000 nM | 74.56
sgRNA knockout: sgSLC35F2, 10000 nM | 44.4
sgRNA knockout: sgXBP1, 10 nM | 115
sgRNA knockout: sgXBP1, 100 nM | 113
sgRNA knockout: sgXBP1, 1000 nM | 75.1
sgRNA knockout: sgXBP1, 10000 nM | 37.2
